Drawing on paper PMC11763377, this text covers binding for one substance.

The chains behind the UniProt entries cited, without tags or fusion partners.
UniProt P09874: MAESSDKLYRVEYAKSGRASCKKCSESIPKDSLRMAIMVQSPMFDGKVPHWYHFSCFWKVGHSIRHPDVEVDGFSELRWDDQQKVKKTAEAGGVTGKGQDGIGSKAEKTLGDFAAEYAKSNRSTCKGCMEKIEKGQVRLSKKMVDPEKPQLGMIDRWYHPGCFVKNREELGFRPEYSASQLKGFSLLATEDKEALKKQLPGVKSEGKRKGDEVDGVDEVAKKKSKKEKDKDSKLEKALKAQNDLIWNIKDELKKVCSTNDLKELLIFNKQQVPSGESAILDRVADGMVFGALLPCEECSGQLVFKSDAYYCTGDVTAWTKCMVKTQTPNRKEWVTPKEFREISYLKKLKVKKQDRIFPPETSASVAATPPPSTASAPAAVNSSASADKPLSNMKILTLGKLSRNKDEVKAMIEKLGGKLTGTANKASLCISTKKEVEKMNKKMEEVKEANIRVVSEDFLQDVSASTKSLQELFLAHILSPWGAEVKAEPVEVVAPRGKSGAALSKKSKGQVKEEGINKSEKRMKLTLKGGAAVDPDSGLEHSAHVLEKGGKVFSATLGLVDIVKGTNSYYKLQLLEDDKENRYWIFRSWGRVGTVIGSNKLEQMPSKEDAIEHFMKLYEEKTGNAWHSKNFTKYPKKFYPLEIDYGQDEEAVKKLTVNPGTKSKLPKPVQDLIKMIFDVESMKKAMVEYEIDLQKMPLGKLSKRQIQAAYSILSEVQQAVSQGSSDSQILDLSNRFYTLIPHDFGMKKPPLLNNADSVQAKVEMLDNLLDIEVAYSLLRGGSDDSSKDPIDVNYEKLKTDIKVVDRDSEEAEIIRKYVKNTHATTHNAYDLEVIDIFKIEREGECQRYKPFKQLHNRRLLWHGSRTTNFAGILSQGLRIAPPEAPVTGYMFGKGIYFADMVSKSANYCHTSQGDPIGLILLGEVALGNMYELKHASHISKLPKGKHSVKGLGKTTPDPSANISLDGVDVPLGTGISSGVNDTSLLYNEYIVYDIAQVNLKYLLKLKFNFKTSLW
UniProt P35579: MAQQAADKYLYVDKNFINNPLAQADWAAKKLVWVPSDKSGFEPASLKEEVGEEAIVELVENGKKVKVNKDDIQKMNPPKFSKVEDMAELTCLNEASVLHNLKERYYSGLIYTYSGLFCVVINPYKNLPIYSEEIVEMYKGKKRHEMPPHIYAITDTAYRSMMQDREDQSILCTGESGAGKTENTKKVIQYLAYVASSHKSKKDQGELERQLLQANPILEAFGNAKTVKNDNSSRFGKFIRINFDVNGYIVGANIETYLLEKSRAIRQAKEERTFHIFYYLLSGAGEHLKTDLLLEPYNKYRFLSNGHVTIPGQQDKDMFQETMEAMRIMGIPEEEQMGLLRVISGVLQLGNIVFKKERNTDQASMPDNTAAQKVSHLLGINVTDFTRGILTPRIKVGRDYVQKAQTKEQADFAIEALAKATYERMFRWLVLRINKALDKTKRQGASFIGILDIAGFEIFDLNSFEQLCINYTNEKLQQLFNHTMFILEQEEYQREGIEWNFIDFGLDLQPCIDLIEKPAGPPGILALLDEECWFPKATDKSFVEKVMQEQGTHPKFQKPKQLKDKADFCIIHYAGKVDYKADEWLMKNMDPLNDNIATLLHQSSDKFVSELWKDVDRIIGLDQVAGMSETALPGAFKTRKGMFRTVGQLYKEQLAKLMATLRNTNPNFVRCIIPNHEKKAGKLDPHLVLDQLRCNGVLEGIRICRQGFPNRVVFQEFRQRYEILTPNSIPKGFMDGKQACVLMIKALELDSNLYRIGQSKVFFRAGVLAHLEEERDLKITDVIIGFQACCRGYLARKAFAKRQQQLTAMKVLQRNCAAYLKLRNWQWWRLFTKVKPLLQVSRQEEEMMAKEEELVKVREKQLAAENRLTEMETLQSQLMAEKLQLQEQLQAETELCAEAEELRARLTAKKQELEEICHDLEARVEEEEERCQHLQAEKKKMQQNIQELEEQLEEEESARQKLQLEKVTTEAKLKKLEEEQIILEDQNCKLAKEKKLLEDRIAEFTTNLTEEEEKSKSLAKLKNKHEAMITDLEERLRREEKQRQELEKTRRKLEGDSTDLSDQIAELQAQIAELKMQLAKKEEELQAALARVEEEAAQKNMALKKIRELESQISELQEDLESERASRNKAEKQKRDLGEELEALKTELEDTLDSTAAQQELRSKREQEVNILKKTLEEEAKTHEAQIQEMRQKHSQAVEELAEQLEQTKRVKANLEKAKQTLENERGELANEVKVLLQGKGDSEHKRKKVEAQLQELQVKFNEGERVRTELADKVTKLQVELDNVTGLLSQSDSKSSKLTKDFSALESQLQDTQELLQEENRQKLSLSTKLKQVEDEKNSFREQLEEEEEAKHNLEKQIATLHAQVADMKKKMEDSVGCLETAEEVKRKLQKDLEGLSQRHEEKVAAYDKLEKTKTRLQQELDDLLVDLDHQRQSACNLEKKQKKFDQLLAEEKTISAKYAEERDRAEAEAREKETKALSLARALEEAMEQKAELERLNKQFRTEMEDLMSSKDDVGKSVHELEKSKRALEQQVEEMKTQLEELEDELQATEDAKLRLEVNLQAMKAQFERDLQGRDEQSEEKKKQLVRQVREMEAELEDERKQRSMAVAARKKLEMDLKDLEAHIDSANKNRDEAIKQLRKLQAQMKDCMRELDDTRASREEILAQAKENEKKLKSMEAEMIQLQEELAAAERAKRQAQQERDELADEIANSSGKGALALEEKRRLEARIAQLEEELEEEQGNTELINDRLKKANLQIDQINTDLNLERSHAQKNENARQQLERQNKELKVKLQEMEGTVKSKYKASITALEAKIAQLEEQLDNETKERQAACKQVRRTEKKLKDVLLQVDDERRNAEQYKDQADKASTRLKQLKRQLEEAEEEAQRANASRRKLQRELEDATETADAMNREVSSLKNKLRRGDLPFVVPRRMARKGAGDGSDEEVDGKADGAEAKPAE

These are yes or no findings as the source states them, for the method shown. Binding seen in cells or lysates may run through a third protein. Some entries that bind do so weakly or less than the wild type.

The assay concerns the target poly (ADP-ribose) polymerase 1 (PARP1) (human (endogenous in TOV-21G)) (UniProt P09874). Put plainly: co-IP; TOV-21G cell lysates immunoprecipitated with the indicated antibodies, Western blot for p53 and MYH9; input 5% of the total cell extract; normal rabbit IgG as negative control, PARP1 as positive control. In general terms: In western blotting, separated proteins are transferred to a membrane and probed.

As to “myosin 9 (MYH9) (from UniProt P35579 1-1960)”, the binding entry was “binds”.
